The supplement of paper PMC12823440, “Inhibitors supercharge kinase turnover through native proteolytic circuits” (Nature, 2025)
Counter-ions that a name gives are not always drawn. The list shows a part of the results. The calls rarely recur for the same compound in another form.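 In K562 cells expressing nanoluciferase-fused kinases, luminescence was recorded at 4 h intervals between 2 and 18 h, normalized as percent of control with DMSO at 100% and a positive control at 0%. A significant (2 sigma) signal drop marks a time point as decreased. The authors' rule for a hit is not shown and takes in more than the number of time points.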

Sequences of proteins named here, by UniProt entry; tags and fusion partners are left off. A change or cut given only in a name is not applied to a line headed by its entry.
UniProt Q05397, whole entry, looked up: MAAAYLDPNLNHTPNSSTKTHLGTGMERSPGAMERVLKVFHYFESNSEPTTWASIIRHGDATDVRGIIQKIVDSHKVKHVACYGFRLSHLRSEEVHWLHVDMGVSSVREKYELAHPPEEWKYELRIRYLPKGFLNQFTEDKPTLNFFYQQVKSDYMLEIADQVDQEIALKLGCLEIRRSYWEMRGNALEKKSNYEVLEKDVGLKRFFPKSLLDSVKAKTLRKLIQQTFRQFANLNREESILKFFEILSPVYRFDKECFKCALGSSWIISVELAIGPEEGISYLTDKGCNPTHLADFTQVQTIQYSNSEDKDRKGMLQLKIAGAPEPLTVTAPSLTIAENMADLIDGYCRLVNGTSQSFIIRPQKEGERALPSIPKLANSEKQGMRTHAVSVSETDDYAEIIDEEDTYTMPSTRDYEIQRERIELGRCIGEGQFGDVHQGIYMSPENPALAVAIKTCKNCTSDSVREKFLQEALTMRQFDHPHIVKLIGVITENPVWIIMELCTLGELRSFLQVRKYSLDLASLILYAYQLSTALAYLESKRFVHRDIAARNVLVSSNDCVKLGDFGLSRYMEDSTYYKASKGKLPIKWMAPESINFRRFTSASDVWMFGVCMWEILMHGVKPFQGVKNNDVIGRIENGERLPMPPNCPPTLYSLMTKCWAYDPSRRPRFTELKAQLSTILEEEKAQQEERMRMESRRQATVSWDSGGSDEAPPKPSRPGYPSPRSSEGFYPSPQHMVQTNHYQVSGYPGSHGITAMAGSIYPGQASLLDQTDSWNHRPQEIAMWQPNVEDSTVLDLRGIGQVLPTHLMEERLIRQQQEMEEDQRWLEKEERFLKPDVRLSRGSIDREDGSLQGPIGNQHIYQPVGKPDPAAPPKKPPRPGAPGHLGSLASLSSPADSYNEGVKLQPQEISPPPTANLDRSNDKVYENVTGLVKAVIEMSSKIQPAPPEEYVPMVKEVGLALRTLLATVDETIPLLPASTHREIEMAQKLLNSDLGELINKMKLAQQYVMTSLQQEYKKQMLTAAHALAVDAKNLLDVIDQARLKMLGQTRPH
UniProt P07949, whole entry, looked up: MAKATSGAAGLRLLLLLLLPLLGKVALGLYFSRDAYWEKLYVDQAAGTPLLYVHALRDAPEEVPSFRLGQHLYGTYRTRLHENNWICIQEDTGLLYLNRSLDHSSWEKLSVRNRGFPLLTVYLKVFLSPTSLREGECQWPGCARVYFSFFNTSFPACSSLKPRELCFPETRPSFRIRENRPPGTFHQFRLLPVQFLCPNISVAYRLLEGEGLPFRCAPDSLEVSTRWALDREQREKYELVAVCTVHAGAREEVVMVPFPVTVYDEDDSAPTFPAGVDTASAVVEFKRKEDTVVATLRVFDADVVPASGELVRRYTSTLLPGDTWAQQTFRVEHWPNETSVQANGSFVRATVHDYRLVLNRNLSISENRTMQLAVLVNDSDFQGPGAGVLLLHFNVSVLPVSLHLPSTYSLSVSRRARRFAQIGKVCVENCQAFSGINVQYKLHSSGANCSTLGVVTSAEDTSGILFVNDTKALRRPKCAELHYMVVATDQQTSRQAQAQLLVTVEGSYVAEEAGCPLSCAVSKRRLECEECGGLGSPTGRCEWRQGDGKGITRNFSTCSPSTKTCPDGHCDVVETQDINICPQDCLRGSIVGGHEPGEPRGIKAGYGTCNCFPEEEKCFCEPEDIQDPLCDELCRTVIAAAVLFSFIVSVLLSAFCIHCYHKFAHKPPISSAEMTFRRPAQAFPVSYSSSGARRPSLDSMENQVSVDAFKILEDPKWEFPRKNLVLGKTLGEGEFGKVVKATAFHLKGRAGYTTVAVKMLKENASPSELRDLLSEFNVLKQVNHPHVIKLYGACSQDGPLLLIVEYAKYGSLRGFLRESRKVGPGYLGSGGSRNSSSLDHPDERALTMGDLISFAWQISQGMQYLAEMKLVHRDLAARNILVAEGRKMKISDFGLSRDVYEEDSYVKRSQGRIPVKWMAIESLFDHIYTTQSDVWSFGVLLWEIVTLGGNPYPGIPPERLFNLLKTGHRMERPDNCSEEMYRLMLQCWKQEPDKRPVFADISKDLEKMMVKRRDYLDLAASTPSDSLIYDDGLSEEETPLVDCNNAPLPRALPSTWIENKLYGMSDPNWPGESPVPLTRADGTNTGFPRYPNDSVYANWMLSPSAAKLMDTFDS
UniProt P07949, whole entry M918T, looked up: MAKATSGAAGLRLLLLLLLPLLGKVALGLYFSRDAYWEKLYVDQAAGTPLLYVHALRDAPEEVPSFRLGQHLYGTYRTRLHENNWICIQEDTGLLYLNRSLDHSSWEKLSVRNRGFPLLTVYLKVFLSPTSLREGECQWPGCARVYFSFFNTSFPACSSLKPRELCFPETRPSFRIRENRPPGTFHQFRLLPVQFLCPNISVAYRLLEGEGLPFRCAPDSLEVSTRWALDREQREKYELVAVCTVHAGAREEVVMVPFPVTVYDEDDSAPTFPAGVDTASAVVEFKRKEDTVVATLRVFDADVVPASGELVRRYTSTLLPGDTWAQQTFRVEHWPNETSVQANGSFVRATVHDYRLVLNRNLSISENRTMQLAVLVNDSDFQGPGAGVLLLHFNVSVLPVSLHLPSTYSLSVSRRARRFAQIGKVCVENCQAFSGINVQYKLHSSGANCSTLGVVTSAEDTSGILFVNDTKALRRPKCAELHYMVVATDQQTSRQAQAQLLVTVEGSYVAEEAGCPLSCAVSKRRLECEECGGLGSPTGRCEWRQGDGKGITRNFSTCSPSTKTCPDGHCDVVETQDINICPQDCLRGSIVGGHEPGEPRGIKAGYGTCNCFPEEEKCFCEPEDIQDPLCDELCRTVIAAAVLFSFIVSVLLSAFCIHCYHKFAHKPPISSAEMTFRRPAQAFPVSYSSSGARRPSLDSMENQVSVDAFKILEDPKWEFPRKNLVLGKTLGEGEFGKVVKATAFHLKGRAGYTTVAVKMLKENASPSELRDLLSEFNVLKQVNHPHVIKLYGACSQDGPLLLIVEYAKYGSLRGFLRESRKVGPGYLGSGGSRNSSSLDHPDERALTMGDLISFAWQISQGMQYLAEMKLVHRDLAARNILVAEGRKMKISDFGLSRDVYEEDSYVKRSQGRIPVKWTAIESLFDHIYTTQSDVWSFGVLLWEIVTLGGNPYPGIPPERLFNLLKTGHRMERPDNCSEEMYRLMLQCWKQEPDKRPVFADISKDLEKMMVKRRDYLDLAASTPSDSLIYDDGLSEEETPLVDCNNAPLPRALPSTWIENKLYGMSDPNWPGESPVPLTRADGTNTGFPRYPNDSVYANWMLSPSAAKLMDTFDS
UniProt Q13546: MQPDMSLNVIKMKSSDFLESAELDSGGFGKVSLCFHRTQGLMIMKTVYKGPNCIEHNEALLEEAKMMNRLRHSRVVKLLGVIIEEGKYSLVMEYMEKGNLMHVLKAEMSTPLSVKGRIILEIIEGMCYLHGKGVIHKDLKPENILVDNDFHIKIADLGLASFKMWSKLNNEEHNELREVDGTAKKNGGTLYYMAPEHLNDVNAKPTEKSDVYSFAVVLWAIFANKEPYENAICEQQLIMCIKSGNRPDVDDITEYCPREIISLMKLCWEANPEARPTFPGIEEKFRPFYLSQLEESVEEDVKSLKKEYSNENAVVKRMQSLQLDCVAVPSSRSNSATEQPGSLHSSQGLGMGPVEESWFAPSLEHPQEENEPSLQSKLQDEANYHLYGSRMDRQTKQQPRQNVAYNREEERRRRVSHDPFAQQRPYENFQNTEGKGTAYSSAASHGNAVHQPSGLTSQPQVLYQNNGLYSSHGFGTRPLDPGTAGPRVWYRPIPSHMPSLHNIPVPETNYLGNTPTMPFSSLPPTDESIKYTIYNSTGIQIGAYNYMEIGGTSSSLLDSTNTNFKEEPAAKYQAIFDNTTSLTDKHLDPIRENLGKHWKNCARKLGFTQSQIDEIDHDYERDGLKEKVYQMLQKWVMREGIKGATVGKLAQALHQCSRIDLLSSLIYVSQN
UniProt Q9NYA1, whole entry: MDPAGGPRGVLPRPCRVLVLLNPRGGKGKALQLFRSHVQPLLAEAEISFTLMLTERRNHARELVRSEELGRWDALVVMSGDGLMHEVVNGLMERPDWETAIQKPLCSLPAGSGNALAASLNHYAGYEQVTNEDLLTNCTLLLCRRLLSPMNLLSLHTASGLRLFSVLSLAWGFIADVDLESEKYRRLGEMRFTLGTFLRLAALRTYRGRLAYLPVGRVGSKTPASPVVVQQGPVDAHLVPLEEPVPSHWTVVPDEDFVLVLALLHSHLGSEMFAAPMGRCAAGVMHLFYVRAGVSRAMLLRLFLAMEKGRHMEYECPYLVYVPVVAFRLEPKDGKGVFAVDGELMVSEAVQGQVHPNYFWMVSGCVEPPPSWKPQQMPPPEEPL
UniProt P29597: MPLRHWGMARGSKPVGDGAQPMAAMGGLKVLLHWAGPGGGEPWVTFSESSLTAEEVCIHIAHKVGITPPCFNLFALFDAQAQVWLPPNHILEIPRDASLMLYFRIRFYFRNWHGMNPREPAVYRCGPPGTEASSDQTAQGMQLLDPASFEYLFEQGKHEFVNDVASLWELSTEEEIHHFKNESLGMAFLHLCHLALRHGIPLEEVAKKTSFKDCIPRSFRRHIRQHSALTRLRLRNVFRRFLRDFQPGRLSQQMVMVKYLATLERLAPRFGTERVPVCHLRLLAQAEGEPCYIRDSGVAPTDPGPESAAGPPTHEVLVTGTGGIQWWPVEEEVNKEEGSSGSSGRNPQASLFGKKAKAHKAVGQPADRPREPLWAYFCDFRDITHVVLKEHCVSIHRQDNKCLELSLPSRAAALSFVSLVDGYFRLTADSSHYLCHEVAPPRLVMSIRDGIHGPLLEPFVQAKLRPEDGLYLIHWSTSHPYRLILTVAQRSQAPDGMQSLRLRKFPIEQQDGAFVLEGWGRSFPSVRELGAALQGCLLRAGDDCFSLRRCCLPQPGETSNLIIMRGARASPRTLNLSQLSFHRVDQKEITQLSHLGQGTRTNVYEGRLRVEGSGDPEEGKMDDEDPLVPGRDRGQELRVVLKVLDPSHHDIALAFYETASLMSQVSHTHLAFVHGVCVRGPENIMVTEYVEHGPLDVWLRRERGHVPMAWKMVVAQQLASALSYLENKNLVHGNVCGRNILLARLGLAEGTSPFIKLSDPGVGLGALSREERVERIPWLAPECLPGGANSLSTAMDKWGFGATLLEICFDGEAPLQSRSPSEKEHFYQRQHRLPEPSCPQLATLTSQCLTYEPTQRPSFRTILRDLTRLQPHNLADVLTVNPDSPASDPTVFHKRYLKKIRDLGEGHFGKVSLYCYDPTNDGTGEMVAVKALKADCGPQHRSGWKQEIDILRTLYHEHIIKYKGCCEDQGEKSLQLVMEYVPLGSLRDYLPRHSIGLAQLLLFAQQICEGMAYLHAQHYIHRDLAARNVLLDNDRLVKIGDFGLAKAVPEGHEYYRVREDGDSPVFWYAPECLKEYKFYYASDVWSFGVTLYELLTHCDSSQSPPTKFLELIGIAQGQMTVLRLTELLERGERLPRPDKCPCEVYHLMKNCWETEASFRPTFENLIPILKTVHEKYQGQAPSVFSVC

What was measured:
Assay in all cases: number of time points (of 5) at which kinase-Nluc abundance scored as decreased, DMSO-normalised (count); higher = more persistent destabilization
Details in all cases: K562; 2-18 h
[1] = biological target: PRKCA (UniProt P17252)
[2] = biological target: PTK2 (UniProt Q05397)
[3] = biological target: PTK2B (UniProt Q14289)
[4] = biological target: RAF1 (UniProt P04049)
[5] = biological target: RAF1_S257L (clone: RAF1_mut) (UniProt P04049)
[6] = biological target: RET (UniProt P07949)
[7] = biological target: RET_M918T (clone: RET_mut) (UniProt P07949)
[8] = biological target: RIOK1 (UniProt Q9BRS2)
[9] = biological target: RIPK1 (UniProt Q13546)
[10] = biological target: RIPK2 (UniProt O43353)
[11] = biological target: ROR2 (UniProt Q01974)
[12] = biological target: RPS6KA1 (UniProt Q15418)
[13] = biological target: SPHK1 (UniProt Q9NYA1)
[14] = biological target: SRC (UniProt P12931)
[15] = biological target: STK24 (UniProt Q9Y6E0)
[16] = biological target: STK38 (UniProt Q15208)
[17] = biological target: SYK (UniProt P43405)
[18] = biological target: TEC (UniProt P42680)
[19] = biological target: TYK2 (UniProt P29597)
[20] = biological target: ULK3 (UniProt Q6PHR2)

Measured: number of time points

O=C1NCCc2[nH]c(-c3ccnc(-c4cnc5ccccc5c4)c3)cc21 (10 µM)
0: all assays above

O=S(=O)(NCCNC/C=C/c1ccc(Br)cc1)c1cccc2cnccc12 [H-89 (dihydrochloride)] (10 µM)
0: all assays above

O=C([O-])c1ccccc1O.[Na+] [Sodium Salicylate] (10 µM)
0: all assays above

CNC(=O)c1cccc2cc(Oc3ccnc4cc(OCC5(N)CC5)c(OC)cc34)ccc12 [Lucitanib] (10 µM)
0: all assays above

Nc1nc(OCC2CCCCC2)c2[nH]cnc2n1 (10 µM)
0: all assays above

O=c1c(O)c(-c2ccc(O)c(O)c2)oc2cc(O)cc(O)c12 [Quercetin (dihydrate)] (10 µM)
0: all assays above

C=CC(=O)N[C@H]1COC[C@H]1Nc1ncc2cc(-c3c(Cl)c(OC)cc(OC)c3Cl)c(=O)n(C)c2n1 (10 µM)
0: all assays above

COc1cc(C(=O)NC2CCN(C)CC2)c(F)cc1Nc1ncc2c(n1)N(C1CCCC1)CC(F)(F)C(=O)N2C [TAK-960 (dihydrochloride)] (2.5 µM)
0: all assays above

Oc1ccc(-c2nc(-c3ccc(F)cc3)c(-c3ccncc3)[nH]2)cc1 (2.5 µM)
0: all assays above

Cc1c[nH]c2ccccc12 [Skatole] (10 µM)
0: all assays above

O=C(Nc1cc(C(F)(F)F)ccc1N1CCN(Cc2ccccn2)CC1)c1ccc(-c2ccncc2)o1 (10 µM)
1: [19]
2: [2]
0: all other assays above

Cc1ccc2c(Nc3ccc(Cl)cc3)nccc2c1Nc1ncccc1-c1ncnc2nc[nH]c12 [Raf inhibitor 1] (2.5 µM)
0: all assays above

CN1CCN(C(=O)c2ccc(-c3ccc4c(C=O)c(O)ccc4c3)s2)CC1 (2.5 µM)
0: all assays above

CCCCC[C@H](O)CC(=O)CCc1ccc(O)c(OC)c1 [[6]-Gingerol] (10 µM)
0: all assays above

Cc1[nH]c(/C=C2\C(=O)Nc3ccc(S(=O)(=O)Cc4c(Cl)cccc4Cl)cc32)c(C)c1C(=O)N1CCC[C@@H]1CN1CCCC1 (2.5 µM)
0: all assays above

COc1cc2ncn(-c3cc(OCc4ccccc4C(F)(F)F)c(C(N)=O)s3)c2cc1OC (10 µM)
1: [19]
4: [2]
0: all other assays above

CCOc1cc2ncc(C#N)c(Nc3ccc(OCc4ccccn4)c(Cl)c3)c2cc1NC(=O)/C=C/CN(C)C [Neratinib] (10 µM)
2: [2]
0: all other assays above

Filtered by structure: the compounds so far with a thiophene ring, fused or not (two)
CN1CCN(C(=O)c2ccc(-c3ccc4c(C=O)c(O)ccc4c3)s2)CC1 (2.5 µM)
0: all assays above

COc1cc2ncn(-c3cc(OCc4ccccc4C(F)(F)F)c(C(N)=O)s3)c2cc1OC (10 µM)
1: [19]
4: [2]
0: all other assays above

Carrying on.

COc1ccc(F)c(F)c1C(=O)c1cnc(NC2CCN(S(C)(=O)=O)CC2)nc1N (2.5 µM)
2: [4] | [9] | [18]
1: [2] | [10] | [16]
3: [7] | [13] | [19]
4: [5]
0: all other assays above

Cc1c[nH]c2nccc(Oc3c(F)cc(Nc4cc(Cl)nc(N)n4)cc3F)c12 (10 µM)
5: [2]
3: [19]
1: [20]
0: all other assays above

COc1cc2ncnc(Nc3ccc(O)cc3)c2cc1OC (10 µM)
0: all assays above

N#Cc1ccc2[nH]c(O)c(-c3ccc(CN4CCOCC4)cn3)c2c1 (10 µM)
0: all assays above

COc1ccc(Oc2cc(NCCC(F)(F)F)c3ncc(-c4ccc(C(=O)NC5CC5)c(C)c4)n3n2)c(F)c1F (2.5 µM)
0: all assays above

CCCn1cnc2c(NCc3ccccc3)nc(NC(CC)CO)nc21 (stereo not given) [Ca2+ channel agonist 1] (2.5 µM)
0: all assays above

O=C(NOC[C@H](O)CO)c1ccc(F)c(F)c1Nc1ccc(I)cc1F (2.5 µM)
0: all assays above

Cc1c(C(=O)N2CCOc3ccc(-c4ccc(N)nc4)cc3C2)ccc(S(C)(=O)=O)c1F (10 µM)
1: [2]
2: [7]
0: all other assays above

COc1ccc(COc2ccc(Cc3cnc(N)nc3N)cc2OC)cc1 (10 µM)
0: all assays above

CNC(=O)c1cc(Oc2ccc(NC(=O)Nc3cc(C(C)(C)C)nn3-c3ccc4ncccc4c3)c(F)c2)ccn1 [Rebastinib] (2.5 µM)
4: [10] | [20]
0: [1] | [11] | [12] | [13] | [14] | [15]
1: [17]
2: [2] | [3] | [16] | [18]
3: all other assays above

COc1ccc(C=C(C#N)c2cccnc2)cc1OC (10 µM)
0: all assays above

Cn1nc(C(C)(C)C)cc1NC(=O)Nc1ccc(Oc2ccncc2)cc1 (10 µM)
2: [4] | [5] | [8] | [10]
4: [20]
0: all other assays above

CC(C)CC(=O)Nc1n[nH]c2c1CN(C(=O)C1CCN(C)CC1)C2(C)C (2.5 µM)
3: [5] | [9]
2: [4] | [7] | [13] | [19] | [20]
0: all other assays above

CCCCNc1ncc(-c2ccc(CN3CCOCC3)cn2)c(NC2CCC(O)CC2)n1 (stereo not given) (10 µM)
0: all assays above

CN(C)CCOc1ccc(-c2nc(-c3ccncc3)c(-c3ccc4c(c3)CC/C4=N\O)[nH]2)cc1 (10 µM)
2: [10]
0: all other assays above

Oc1cc(O)cc(/C=C/c2ccc(O)c(O)c2)c1 [Piceatannol] (10 µM)
4: [19] | [20]
2: [4] | [5] | [18]
3: [3] | [8] | [9]
5: [10]
0: all other assays above

Cc1ccc(F)c(NC(=O)Nc2ccc(-c3cccc4[nH]nc(N)c34)cc2)c1 [Linifanib] (2.5 µM)
1: [7] | [8]
5: [2] | [19]
0: all other assays above

CC(C)(C)S(=O)(=O)c1cc2c(Nc3ccc4scnc4c3)ncnc2cc1OCCO (2.5 µM)
4: [10]
0: all other assays above

CC(C)(/C=C(\C#N)C(=O)N1CCC[C@@H](n2nc(-c3ccc(Oc4ccccc4)cc3F)c3c(N)ncnc32)C1)N1CCN(C2COC2)CC1 (2.5 µM)
0: all assays above

CC(=O)N1CCN(c2ccc(OCC3COC(Cn4ccnc4)(c4ccc(Cl)cc4Cl)O3)cc2)CC1 (stereo not given) [Ketoconazole] (2.5 µM)
0: all assays above

Cc1c(NC(=O)c2cc3c(s2)CCCC3)cccc1-c1cn(C)c(=O)c(Nc2ccc([C@@H]3C(=O)N(C)CCN3C)cc2)n1 (10 µM)
0: all assays above

CCn1cc(-c2ccnc3[nH]c(-c4cccc(CN(C)C)c4)cc23)c(-c2ccc(NC(=O)N(C)C)cc2)n1 (2.5 µM)
0: all assays above

O=C1NC(=NCc2cccs2)S/C1=C\c1ccc2ncccc2c1 (10 µM)
0: all assays above

O=c1oc2c(O)c(O)cc3c(=O)oc4c(O)c(O)cc1c4c23 [Ellagic acid] (10 µM)
0: all assays above

c1cc(OCCN2CCCCC2)cc(-c2n[nH]c3ccc(-c4nnc[nH]4)cc23)c1 [CC-401 (hydrochloride)] (10 µM)
0: all assays above

C=CC(=O)N1CCN(CCCn2c(=O)c(-c3c(Cl)c(OC)cc(OC)c3Cl)cc3cnc(NC)nc32)CC1 (10 µM)
0: all assays above

COc1cc(OC)cc(N(CCNC(C)C)c2ccc3ncc(-c4cnn(C)c4)nc3c2)c1 [Erdafitinib] (2.5 µM)
4: [5]
0: all other assays above

Cc1cccc([C@@H](CO)NC(=O)[C@@H](C)N2Cc3ccc(-c4nc(NC5CCOCC5)ncc4Cl)cc3C2=O)c1 [ERK1/2 inhibitor 1] (10 µM)
0: all assays above

CCN1CCN(c2ccc(Nc3cc(N(C)C(=O)Nc4c(Cl)c(OC)cc(OC)c4Cl)ncn3)cc2)CC1 [Infigratinib] (10 µM)
0: all assays above

O=c1oc2ccccc2c(O)c1Cc1c(O)c2ccccc2oc1=O [Dicoumarol] (10 µM)
0: all assays above

COCCNCCc1cccc(Nc2ncc3c(n2)-c2ccccc2[C@H](c2ccccc2F)C3)c1 [Derazantinib] (2.5 µM)
1: [2] | [19]
0: all other assays above

CCCCOc1c(C(=O)c2c(F)cc(C)cc2F)c[nH]c2nncc1-2 (10 µM)
0: all assays above
